Data published in paper PMC7925512.
These are yes or no findings as the source states them, for the method shown. In cells and extracts the contact can be indirect. Some binding calls cover weakened binding; strength is not graded here. For some assays here: Where a sequence is shown, tags or fusion partners need not be part of it.

Protein sequences, listed by entry. Tags and fused reporters are not part of them.
UniProt Q9DBY1: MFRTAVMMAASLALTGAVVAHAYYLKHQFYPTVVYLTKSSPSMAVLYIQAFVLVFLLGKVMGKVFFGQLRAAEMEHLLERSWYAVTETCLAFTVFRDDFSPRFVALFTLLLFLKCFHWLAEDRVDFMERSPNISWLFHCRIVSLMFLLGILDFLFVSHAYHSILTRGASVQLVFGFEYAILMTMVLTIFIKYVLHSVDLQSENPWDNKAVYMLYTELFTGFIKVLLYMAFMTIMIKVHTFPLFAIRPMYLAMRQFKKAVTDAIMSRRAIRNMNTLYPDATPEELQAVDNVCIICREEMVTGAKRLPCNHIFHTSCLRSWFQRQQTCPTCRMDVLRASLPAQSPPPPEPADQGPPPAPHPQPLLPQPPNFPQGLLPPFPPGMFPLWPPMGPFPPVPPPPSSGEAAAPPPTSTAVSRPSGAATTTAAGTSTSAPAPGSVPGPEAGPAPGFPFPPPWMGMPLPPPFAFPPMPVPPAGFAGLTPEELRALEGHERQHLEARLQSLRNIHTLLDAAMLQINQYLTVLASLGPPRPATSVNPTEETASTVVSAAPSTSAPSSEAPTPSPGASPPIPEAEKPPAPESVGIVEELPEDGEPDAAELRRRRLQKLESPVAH
UniProt Q86TM6: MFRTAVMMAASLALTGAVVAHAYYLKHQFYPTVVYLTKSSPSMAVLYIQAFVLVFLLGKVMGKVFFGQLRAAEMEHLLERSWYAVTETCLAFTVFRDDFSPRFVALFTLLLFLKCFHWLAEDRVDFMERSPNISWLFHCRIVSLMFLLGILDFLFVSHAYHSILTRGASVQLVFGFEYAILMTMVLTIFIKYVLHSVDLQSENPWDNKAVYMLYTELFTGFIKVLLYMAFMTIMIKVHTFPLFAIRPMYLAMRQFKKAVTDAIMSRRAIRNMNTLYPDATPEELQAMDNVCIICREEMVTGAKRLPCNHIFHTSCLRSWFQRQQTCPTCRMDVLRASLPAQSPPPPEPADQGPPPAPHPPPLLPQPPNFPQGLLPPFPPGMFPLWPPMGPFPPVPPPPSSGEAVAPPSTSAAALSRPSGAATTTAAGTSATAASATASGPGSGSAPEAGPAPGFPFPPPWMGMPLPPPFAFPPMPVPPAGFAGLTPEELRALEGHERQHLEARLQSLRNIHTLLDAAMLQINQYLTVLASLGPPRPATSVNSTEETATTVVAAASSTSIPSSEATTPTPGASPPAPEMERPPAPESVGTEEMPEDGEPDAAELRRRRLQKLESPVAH

B1: nuclear factor erythroid 2-related factor 2 (NRF2) (protein, UniProt Q60795 1-597)
chain: MMDLELPPPGLQSQQDMDLIDILWRQDIDLGVSREVFDFSQRQKDYELEKQKKLEKERQEQLQKEQEKAFFAQFQLDEETGEFLPIQPAQHIQTDTSGSASYSQVAHIPKQDALYFEDCMQLLAETFPFVDDHESLALDIPSHAESSVFTAPHQAQSLNSSLEAAMTDLSSIEQDMEQVWQELFSIPELQCLNTENKQLADTTAVPSPEATLTEMDSNYHFYSSISSLEKEVGNCGPHFLHGFEDSFSSILSTDDASQLTSLDSNPTLNTDFGDEFYSAFIAEPSDGGSMPSSAAISQSLSELLDGTIEGCDLSLCKAFNPKHAEGTMEFNDSDSGISLNTSPSRASPEHSVESSIYGDPPPGFSDSEMEELDSAPGSVKQNGPKAQPAHSPGDTVQPLSPAQGHSAPMRESQCENTTKKEVPVSPGHQKAPFTKDKHSSRLEAHLTRDELRAKALHIPFPVEKIINLPVDDFNEMMSKEQFNEAQLALIRDIRRRGKNKVAAQNCRKRKLENIVELEQDLGHLKDEREKLLREKGENDRNLHLLKRRLSTLYLEVFSMLRDEDGKPYSPSEYSLQQTRDGNVFLVPKSKKPDTKKN
B2: human His-NRF2 (protein, UniProt Q16236-2 1-589)
chain: MDLIDILWRQDIDLGVSREVFDFSQRRKEYELEKQKKLEKERQEQLQKEQEKAFFAQLQLDEETGEFLPIQPAQHIQSETSGSANYSQVAHIPKSDALYFDDCMQLLAQTFPFVDDNEVSSATFQSLVPDIPGHIESPVFIATNQAQSPETSVAQVAPVDLDGMQQDIEQVWEELLSIPELQCLNIENDKLVETTMVPSPEAKLTEVDNYHFYSSIPSMEKEVGNCSPHFLNAFEDSFSSILSTEDPNQLTVNSLNSDATVNTDFGDEFYSAFIAEPSISNSMPSPATLSHSLSELLNGPIDVSDLSLCKAFNQNHPESTAEFNDSDSGISLNTSPSVASPEHSVESSSYGDTLLGLSDSEVEELDSAPGSVKQNGPKTPVHSSGDMVQPLSPSQGQSTHVHDAQCENTPEKELPVSPGHRKTPFTKDKHSSRLEAHLTRDELRAKALHIPFPVEKIINLPVVDFNEMMSKEQFNEAQLALIRDIRRRGKNKVAAQNCRKRKLENIVELEQDLDHLKDEKEKLLKEKGENDKSLHLLKKQLSTLYLEVFSMLRDEDGKPYSPSEYSLQQTRDGNVFLVPKSKKPDVKKN

Assays:
[1] = molecular target: HRD1 (mouse (endogenous in TCMK-1)) (UniProt Q9DBY1); assay: co-IP; endogenous proteins in lysate of H/R-exposed TCMK-1 cells; 1 mg total protein lysate with antibodies against specific proteins or rabbit polyclonal IgG control, 4 h at 4 °C, Protein A/G Plus-Agarose, western blot
human Flag-HRD1 (human) = human Flag-HRD1 (human) (UniProt Q86TM6); assay: co-IP; called an in vitro binding assay; HA-tagged ubiquitin, Flag-tagged HRD1 and His-tagged NRF2 or its deletion mutants, immunoprecipitated from HEK-293T cells

Binder	binding [1]	binding (human Flag-HRD1 (human))
B1	binds	
B2		binds
